These are yes or no findings as the source states them, for the method shown. Binding seen in cells or lysates may run through a third protein.
Target: DYKDDDDK (FLAG)-TNF-α (UniProt P01375)
Assay: co-IP; complex I analysis: HT1080 cells stimulated with 2 μg/mL FLAG-TNF-α for the indicated times, lysed in 20 mM Tris-HCl pH 7.4, 150 mM NaCl, 0.2% Nonidet P40, 10% glycerol; anti-FLAG M2 magnetic beads 4 h at 4 °C, five washes, immunoblotting; control or BIG1 siRNA in Figure 5D; only the target …

The chains behind the UniProt entries cited, without tags or fusion partners. Where a name states a change or a piece, a line headed by the entry shows the natural chain unless it says otherwise.
UniProt P01375: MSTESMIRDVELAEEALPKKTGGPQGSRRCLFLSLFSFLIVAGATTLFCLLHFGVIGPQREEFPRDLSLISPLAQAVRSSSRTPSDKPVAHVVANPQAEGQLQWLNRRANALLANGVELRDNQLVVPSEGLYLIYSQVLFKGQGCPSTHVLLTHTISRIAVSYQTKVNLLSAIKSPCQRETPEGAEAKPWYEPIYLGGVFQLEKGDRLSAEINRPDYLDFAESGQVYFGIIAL
UniProt Q9Y6D6: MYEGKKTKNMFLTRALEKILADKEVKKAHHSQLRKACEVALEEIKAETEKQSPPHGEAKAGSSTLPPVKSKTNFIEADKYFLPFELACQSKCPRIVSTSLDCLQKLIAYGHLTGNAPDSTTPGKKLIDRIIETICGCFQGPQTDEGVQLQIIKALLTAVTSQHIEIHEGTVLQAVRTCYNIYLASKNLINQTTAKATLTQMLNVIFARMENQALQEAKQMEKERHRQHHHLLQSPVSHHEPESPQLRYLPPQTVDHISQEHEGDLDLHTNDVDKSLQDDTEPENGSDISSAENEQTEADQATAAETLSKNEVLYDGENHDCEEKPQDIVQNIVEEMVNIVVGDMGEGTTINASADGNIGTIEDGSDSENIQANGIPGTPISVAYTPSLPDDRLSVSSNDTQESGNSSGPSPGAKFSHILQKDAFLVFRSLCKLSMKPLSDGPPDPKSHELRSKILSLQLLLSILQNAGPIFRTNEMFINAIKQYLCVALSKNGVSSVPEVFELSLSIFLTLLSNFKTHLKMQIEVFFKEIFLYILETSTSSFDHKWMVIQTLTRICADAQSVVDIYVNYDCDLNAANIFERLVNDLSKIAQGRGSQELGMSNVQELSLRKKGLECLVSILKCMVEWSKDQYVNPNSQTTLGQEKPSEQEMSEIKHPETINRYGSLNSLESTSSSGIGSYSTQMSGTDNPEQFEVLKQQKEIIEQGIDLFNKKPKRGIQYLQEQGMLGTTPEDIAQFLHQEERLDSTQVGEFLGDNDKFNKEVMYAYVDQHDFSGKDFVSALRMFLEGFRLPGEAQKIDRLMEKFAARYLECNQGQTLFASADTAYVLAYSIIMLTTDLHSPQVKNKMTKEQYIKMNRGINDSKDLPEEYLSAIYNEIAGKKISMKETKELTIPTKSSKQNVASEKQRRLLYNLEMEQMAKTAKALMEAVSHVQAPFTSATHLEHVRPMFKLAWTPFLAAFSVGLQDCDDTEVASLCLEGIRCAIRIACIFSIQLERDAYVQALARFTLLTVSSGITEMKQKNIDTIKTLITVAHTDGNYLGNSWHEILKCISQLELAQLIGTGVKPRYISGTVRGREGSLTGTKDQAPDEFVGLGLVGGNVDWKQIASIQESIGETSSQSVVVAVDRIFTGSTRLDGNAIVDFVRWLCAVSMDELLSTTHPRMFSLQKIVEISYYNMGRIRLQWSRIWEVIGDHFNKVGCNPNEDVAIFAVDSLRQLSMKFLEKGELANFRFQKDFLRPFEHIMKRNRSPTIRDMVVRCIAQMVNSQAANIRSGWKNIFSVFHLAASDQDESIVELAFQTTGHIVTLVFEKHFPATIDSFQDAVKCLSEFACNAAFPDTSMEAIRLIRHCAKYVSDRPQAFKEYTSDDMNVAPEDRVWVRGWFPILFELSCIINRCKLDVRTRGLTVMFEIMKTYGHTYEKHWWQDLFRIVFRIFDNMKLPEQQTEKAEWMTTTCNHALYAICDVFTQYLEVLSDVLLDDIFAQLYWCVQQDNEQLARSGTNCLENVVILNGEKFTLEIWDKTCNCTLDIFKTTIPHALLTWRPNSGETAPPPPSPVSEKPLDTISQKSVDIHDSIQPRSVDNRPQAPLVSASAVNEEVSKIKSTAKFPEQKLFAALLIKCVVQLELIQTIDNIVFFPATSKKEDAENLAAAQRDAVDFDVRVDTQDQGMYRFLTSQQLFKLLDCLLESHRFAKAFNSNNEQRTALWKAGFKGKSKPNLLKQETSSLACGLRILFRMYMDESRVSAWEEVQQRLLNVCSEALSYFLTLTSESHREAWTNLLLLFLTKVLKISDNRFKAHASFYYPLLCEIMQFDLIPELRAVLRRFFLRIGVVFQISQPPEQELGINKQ

Brefeldin A-inhibited guanine nucleotide-exchange factor 1 (from UniProt Q9Y6D6 1-1849)
binding: no binding

Source: article PMC5133869
